For some assays here: A negative result means that nothing was seen under these conditions. At least one verdict rests on a figure or table, not on a statement of the authors. For at least one entry, the source does not settle the construct or the ends of the probe. The comparison behind a weaker result is the experiment's own reference, which may not be listed here.
Key:
Assay in all cases: EMSA
DmDM15 (fruit fly) = DmDM15 (fruit fly) (UniProt A0A0B4K7Y7); conditions: uncapped, 5' phosphate (PNK), no cap, EMSA: 20 mM Tris-HCl pH 8, 150 mM NaCl, 10% glycerol, 1 mM DTT, 0.5 ug tRNA, 1 ug BSA, pM RNA (95 C, snap cooled), 0.5-1 h on ice, native 7% PAGE, 0.5X TBE, recombinant protein, protein details: His6-MBP removed by TEV, label: 5' 32P
DrDM15 (zebrafish) = DrDM15 (zebrafish) (UniProt F1R0U5); conditions: EMSA: 20 mM Tris-HCl pH 8, 150 mM NaCl, 10% glycerol, 1 mM DTT, 0.5 ug tRNA, 1 ug BSA, pM RNA (95 C, snap cooled), native 7% PAGE, 0.5X TBE, recombinant protein
HsDM15 (Homo sapiens) = conditions: EMSA: 20 mM Tris-HCl pH 8, 150 mM NaCl, 10% glycerol, 1 mM DTT, 0.5 ug tRNA, 1 ug BSA, pM RNA (95 C, snap cooled), native 7% PAGE, 0.5X TBE, recombinant protein, protein details: His6-MBP removed by TEV
[1] = uncapped, 5' phosphate (PNK), no cap, 0.5-1 h on ice, label: 5' 32P
[2] = 5' m7G cap (Vaccinia capping), 0.5-1 h on …, label: 32P in cap
[3] = uncapped, enhanced vs PABPC1, 5' phosphate (PNK), no cap, 0.5-1 h on ice, label: 5' 32P

By UniProt entry, the sequences of proteins in these tests, tags left out.
UniProt A0A0B4K7Y7, entry or part of it: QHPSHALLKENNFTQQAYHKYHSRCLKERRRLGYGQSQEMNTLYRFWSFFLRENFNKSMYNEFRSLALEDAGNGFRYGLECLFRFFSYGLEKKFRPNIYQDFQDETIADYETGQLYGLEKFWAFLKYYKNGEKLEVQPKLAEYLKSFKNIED

Row | Sequence | binding result (DmDM15 (fruit fly)) | binding result (DrDM15 (zebrafish); [1]) | binding result (HsDM15 (Homo sapiens); [1]) | binding result (DrDM15 (zebrafish); [2]) | binding result (HsDM15 (Homo sapiens); [2]) | binding result (DmDM15 (fruit fly); enhanced vs PABPC1) | binding result (DrDM15 (zebrafish); [3]) | binding result (HsDM15 (Homo sapiens); [3])
1 | CCUUCUCCCCGGCGGUUAGUGCUGAGAGUGCGGAGUGUGUGC [HsPABPC1 5' UTR, uncapped] | binds more weakly | binds more weakly | binds more weakly | – | – | – | – | –
2 | GAAAAGCCAUUGUCAGCCGACGAAGUGCUUUAACCCAAACUA [ΔTOP_DmRPL30 42-mer, capped] | – | – | – | no binding | no binding | – | – | –
3 | CCUCUUUUCCGCUUAUCUCUUUGAGAUAAAUGCAUAUUUUUU [HsRPS6_Stem, uncapped] | binds | binds | binds | – | – | – | – | –
4 | CCUCUUUUCCGUGGCGCCUCGGAGGCGUUCAGCUGCUUCAAG [HsRPS6 5' UTR, uncapped] | binds | binds | binds | – | – | – | – | –
5 | CCUUCUCCCCGCUUAUCUCUUUGAGAUAAAUGCAUAUUUUUU [HsPABPC1_Stem, uncapped] | – | – | – | – | – | binds | binds | binds
6 | GGAGAAAAGGGCUUAUCUCUUUGAGAUAAAUGCAUAUUUUUU [ΔTOP_HsRPS6_Stem, uncapped] | binds more weakly | binds more weakly | binds more weakly | – | – | – | – | –
